Where a chain is given by its changes, count along the chain named. Results are given in words; binding and its absence hold for the method and conditions named. Binding seen in cells or lysates may run through a third protein. Some binding calls cover weakened binding; strength is not graded here. For some of these results: Sequences can lack the tags named with a protein.
How the values were obtained:
Test in all cases: co-IP
[1] = target: T1, TRAK1-mScarlet E242R (human) (UniProt Q9UPV9)
T1 sequence: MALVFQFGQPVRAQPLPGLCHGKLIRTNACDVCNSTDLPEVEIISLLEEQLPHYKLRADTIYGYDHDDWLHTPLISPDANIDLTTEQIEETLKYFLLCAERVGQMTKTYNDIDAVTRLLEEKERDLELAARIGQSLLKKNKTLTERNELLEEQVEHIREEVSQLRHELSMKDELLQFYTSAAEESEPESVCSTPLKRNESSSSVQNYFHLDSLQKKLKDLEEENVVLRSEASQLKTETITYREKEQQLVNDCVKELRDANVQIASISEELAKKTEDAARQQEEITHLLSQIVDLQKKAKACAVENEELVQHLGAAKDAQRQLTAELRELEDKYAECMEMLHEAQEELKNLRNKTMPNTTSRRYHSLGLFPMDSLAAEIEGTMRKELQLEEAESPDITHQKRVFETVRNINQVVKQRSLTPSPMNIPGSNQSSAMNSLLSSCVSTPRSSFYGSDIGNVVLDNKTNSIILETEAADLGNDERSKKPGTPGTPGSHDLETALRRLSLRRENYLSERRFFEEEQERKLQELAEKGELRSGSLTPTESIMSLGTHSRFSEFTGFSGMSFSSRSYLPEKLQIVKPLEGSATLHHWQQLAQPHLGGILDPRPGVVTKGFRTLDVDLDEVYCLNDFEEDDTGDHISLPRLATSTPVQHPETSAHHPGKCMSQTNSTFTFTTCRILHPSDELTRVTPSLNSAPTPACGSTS

The chains behind the UniProt entries cited, without tags or fusion partners.
UniProt P33176: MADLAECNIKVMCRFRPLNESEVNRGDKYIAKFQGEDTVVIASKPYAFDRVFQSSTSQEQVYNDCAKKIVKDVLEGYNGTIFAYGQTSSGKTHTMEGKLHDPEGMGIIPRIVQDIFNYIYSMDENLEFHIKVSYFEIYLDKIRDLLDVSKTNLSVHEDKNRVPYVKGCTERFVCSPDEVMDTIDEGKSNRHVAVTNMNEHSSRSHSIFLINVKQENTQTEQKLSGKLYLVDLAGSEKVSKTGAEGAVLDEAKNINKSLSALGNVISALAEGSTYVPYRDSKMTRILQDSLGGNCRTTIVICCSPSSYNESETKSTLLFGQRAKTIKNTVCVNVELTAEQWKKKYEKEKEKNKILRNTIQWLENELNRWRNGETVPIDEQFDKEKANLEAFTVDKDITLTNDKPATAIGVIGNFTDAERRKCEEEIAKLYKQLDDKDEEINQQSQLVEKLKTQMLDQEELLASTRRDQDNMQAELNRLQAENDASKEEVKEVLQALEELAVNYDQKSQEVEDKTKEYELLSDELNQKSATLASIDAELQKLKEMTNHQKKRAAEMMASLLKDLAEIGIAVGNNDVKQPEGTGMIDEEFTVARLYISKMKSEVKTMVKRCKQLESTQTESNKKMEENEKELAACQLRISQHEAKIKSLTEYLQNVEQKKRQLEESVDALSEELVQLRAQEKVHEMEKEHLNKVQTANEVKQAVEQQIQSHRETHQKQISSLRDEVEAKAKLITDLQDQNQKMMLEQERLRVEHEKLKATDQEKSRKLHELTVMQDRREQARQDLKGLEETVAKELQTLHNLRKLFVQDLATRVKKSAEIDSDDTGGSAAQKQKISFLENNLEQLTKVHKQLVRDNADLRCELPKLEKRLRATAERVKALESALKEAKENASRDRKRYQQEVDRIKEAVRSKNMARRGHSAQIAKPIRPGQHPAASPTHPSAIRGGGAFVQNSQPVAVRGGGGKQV
UniProt Q14204: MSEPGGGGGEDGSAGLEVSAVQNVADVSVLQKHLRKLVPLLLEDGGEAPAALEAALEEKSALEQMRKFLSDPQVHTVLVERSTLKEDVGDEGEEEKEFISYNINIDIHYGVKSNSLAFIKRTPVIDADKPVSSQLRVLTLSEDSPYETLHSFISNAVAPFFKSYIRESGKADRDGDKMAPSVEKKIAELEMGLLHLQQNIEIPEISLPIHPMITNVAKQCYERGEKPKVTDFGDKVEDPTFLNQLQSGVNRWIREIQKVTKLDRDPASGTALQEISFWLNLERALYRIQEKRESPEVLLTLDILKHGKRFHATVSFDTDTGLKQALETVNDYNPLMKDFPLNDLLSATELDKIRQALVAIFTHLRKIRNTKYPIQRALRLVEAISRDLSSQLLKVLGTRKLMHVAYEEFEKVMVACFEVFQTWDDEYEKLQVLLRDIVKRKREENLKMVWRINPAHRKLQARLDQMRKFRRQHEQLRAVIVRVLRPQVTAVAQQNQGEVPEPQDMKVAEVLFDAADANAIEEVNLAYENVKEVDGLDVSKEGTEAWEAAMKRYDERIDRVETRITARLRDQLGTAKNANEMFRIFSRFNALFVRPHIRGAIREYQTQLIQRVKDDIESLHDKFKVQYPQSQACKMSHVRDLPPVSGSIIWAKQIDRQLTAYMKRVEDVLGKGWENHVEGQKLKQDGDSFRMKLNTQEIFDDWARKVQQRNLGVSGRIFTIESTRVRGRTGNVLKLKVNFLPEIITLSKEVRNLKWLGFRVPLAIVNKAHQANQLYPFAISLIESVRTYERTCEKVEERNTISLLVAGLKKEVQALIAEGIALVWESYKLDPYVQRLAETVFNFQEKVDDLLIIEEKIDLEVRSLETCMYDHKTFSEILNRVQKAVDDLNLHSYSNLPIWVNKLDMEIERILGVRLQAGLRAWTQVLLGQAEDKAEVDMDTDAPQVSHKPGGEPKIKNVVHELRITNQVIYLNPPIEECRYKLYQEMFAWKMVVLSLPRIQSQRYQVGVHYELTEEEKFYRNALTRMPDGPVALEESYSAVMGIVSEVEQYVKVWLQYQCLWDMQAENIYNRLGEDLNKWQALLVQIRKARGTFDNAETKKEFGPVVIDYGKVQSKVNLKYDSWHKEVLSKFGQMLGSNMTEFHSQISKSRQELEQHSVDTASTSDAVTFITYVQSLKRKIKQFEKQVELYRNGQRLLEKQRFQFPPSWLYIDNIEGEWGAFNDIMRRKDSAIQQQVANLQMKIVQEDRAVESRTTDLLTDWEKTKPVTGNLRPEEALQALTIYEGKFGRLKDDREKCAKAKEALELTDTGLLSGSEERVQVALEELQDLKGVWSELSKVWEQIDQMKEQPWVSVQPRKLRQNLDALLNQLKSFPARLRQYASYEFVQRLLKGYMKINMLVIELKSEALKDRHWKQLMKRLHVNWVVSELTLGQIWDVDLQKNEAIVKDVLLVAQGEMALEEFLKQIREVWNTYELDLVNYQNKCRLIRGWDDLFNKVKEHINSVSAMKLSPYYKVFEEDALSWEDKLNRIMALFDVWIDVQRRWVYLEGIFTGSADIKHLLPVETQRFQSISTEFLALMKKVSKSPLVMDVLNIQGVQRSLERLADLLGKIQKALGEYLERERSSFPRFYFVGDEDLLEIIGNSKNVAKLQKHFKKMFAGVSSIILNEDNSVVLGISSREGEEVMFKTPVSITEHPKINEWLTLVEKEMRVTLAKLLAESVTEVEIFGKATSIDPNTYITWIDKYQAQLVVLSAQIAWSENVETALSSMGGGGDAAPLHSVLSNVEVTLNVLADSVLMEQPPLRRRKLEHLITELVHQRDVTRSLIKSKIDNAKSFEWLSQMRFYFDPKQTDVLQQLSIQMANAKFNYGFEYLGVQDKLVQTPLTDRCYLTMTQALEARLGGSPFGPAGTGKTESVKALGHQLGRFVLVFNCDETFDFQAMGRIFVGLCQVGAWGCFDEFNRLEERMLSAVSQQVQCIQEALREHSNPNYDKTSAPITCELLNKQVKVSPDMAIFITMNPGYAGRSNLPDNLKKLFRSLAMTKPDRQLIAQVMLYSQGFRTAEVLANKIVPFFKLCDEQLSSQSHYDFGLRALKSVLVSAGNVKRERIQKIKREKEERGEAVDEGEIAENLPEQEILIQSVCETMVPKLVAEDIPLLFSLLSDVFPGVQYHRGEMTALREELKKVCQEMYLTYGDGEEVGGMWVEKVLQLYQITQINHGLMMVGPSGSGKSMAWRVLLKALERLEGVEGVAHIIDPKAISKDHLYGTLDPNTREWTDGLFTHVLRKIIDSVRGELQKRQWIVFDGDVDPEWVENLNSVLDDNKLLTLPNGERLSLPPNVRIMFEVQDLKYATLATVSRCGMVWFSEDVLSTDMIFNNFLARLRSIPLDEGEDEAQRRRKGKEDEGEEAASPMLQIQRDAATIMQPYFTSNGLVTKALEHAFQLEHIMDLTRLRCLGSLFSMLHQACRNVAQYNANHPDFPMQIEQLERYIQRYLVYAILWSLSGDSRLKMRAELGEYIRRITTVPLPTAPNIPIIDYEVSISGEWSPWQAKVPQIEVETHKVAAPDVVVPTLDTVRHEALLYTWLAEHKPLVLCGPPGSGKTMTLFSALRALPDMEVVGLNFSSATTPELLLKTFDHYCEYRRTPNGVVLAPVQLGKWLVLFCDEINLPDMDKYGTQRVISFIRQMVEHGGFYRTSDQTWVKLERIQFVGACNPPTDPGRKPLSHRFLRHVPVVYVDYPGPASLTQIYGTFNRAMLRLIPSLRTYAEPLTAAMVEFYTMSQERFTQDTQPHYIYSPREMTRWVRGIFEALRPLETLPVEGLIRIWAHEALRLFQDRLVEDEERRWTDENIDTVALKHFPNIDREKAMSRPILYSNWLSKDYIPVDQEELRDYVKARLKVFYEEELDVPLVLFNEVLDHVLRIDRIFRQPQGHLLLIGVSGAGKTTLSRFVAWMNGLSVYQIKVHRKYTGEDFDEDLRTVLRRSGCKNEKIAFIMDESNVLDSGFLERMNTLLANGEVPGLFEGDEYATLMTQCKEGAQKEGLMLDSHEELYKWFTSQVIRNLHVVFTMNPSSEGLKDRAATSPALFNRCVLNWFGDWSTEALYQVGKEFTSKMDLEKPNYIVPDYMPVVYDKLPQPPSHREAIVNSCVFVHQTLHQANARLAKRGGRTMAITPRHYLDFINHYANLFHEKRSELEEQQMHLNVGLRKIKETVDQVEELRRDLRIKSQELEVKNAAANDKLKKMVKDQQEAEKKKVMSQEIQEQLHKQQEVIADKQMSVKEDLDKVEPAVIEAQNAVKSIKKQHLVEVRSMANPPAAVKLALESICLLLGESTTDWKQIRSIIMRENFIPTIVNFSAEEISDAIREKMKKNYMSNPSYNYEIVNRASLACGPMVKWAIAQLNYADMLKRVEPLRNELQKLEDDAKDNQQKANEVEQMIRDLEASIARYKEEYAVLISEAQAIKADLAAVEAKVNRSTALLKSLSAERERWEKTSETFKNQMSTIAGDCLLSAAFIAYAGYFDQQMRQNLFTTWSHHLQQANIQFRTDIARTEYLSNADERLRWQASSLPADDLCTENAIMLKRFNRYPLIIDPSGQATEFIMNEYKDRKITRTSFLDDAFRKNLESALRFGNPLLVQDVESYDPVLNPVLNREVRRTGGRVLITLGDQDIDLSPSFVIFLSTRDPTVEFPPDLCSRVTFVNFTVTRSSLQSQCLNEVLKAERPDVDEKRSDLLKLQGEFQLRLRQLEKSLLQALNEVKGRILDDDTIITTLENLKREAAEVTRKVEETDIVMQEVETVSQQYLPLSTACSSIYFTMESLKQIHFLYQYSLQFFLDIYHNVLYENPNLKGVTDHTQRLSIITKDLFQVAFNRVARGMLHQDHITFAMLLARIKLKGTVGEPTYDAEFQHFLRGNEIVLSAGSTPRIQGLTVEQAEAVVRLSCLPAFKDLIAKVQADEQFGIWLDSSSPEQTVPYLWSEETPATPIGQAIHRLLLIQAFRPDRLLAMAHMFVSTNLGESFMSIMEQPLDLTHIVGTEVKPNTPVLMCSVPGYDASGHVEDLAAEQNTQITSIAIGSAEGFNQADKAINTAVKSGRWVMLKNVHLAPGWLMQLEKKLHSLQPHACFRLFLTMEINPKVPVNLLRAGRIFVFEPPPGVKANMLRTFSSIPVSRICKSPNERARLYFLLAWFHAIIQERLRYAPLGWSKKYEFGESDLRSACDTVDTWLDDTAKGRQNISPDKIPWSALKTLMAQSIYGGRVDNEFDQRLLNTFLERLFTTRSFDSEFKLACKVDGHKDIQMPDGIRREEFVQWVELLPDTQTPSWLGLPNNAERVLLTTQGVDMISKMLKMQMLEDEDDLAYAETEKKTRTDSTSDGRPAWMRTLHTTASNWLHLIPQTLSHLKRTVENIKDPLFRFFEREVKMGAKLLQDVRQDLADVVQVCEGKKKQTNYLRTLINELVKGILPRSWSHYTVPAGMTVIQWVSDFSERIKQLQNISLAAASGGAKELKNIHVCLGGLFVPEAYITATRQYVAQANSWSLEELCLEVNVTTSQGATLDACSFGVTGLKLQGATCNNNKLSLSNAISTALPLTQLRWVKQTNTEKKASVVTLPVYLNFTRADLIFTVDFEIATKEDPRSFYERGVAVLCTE

[2] = target: T2, TRAK2-mScarlet (wild type, truncated before the mitochondrial binding domain) (human) (UniProt O60296)
T2 sequence: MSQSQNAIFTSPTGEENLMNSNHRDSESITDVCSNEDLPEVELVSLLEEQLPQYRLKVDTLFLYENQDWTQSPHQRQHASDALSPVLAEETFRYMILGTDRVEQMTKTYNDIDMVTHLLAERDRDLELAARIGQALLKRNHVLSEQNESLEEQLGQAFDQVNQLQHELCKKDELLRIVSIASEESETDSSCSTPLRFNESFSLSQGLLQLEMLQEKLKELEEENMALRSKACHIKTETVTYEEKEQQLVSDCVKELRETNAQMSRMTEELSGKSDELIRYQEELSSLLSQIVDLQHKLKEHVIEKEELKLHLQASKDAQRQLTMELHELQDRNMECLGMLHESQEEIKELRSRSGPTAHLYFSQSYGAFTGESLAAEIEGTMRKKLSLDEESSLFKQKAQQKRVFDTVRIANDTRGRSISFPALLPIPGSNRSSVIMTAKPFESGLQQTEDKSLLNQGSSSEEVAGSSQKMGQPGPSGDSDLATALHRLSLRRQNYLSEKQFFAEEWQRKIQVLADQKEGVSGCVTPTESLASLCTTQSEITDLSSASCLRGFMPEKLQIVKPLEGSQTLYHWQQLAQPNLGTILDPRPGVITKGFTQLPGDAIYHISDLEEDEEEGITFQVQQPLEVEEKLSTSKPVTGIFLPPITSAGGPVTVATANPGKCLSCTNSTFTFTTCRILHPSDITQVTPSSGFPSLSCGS

[3] = target: T3, TRAK1-mScarlet (wild type, truncated before the mitochondrial binding domain) (human) (UniProt Q9UPV9)
T3 sequence: T1 sequence with R242E

[4] = target: T4, TRAK2-mScarlet A129V/A130V (CC1-box mutant) (human) (UniProt O60296)
T4 sequence: T2 sequence with A129V, A130V

[5] = target: T5, Miro1-sfGFP-FLAG-I3-01 synthetic cargo (human) (UniProt Q8IXI2)
T5 sequence: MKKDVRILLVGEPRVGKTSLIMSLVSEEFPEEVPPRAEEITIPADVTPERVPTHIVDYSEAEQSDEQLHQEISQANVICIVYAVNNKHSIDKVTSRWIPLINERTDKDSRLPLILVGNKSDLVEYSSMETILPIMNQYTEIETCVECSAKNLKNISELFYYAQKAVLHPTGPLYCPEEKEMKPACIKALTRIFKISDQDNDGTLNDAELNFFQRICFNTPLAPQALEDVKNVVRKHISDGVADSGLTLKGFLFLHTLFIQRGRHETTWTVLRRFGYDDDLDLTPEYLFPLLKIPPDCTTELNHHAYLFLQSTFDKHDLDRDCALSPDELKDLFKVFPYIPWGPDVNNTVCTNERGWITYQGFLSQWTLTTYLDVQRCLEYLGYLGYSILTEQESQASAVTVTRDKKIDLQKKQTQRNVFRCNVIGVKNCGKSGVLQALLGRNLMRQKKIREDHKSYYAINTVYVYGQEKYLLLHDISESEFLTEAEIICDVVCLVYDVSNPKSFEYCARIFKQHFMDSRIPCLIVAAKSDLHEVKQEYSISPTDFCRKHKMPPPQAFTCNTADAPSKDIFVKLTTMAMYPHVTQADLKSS

kinesin-1 (KIF5B) (from UniProt P33176 1-963)
binding [1]: binds

dynactin subunit p150 (from UniProt Q14203-1 1-1278)
binding [2]: binds
binding [3]: binds
binding [4]: binds

dynein heavy chain (DHC1) (from UniProt Q14204 1-4646)
binding [2]: binds
binding [4]: binds

B1: TRAK2-mScarlet (wild type, truncated before the mitochondrial binding domain) (domain or fragment, UniProt O60296 1-700)
chain: T2 sequence
binding [5]: binds

— publication doi:10.1101/2024.09.13.612963 (bioRxiv, 2024)
